The source of these data is article PMC6533518.

Chains of the proteins cited; added tags and fusions are not shown. Residues count along the entry.
UniProt P30405, residues 30-207: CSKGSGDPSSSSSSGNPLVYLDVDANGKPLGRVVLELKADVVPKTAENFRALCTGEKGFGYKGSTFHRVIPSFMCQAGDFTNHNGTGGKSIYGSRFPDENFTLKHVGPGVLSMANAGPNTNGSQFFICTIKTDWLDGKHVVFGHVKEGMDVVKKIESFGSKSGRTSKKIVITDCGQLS
UniProt P10415: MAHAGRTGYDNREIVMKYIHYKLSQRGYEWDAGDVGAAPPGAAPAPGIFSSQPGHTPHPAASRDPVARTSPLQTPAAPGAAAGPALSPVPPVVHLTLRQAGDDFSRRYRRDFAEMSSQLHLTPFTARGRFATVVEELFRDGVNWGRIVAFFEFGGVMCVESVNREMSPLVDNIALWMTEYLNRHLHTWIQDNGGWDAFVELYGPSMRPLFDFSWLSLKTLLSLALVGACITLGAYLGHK

The experiment deals with cyclophilin D (human (endogenous in HOK)) (UniProt P30405). Nature of the experiment: co-IP; mitochondrial extract of HOK cells; immunoprecipitation with anti-CypD antibody, protein A/G-agarose, overnight at 4°C; 20 mmol/L Tris-HCl pH 7.5, 150 mmol/L NaCl, 1.5% Nonidet P-40; Western blot for Bcl2. A general note: A western blot detects proteins with antibodies after separation by electrophoresis.

Results are given in words; binding and its absence hold for the method and conditions named. In cells and extracts the contact can be indirect. Some binding calls cover weakened binding; strength is not graded here.

For Bcl2 (from UniProt P10415 1-239), the binding entry is “binds”.
